Results reported in publication PMC6611904.

The chains behind the UniProt entries cited, without tags or fusion partners.
UniProt Q653D5, entry or part of it: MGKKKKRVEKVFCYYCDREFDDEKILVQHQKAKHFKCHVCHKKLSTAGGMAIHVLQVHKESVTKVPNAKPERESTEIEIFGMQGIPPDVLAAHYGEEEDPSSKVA

These sequences were tested against His-OsSUF4N (Oryza sativa) (UniProt Q653D5) (assay: EMSA). Settings: EMSA: LightShift kit binding buffer, 5 ug protein, 0.02 uM probe, poly(dI-dC), 25 C 30 min, 5% PAGE; recombinant protein; residues 1-105; protein details: His (pET32a).
“ACAGTTAACGGGCGGTACGGAAATGGTATAAA (double strand) [Hd3a-e mu2]”: binds.
“ACAGTTGGATAACGGTACGGAAATGGTATAAA (double strand) [Hd3a-e mu1]”: binds.
“ACAGTTAACTAACGGTACGGAAATTTGATAAA (double strand) [Hd3a-e mu7]”: binds.
“ACAGTTAACTAAGTTTACGGAAATGGTATAAA (double strand) [Hd3a-e mu3]”: binds.
“ACAGTTAACTAACGGTACGGAGGGGGTATAAA (double strand) [Hd3a-e mu6]”: no binding.
“AGTATGAGTTTTGGAATTAAGGGGATACCGAAC (double strand) [RFT1-mu]”: no binding.
“ACAGTTAACTAACGGTACGGAAATGGTATAAA (double strand) [Hd3a-e (Hd3a-WT)]”: binds.
“ACAGTTAACTAACGGCCTGGAAATGGTATAAA (double strand) [Hd3a-e mu4]”: no binding.
“ACAGTTAACTAACGGTACAAGAATGGTATAAA (double strand) [Hd3a-e mu5]”: no binding.
“CGGAAATCGGAAATCGGAAATCGGAAATCGGAAAT (double strand) [5x elements]”: binds.

A negative result means that nothing was seen under these conditions. At least one verdict rests on a figure or table, not on a statement of the authors. The exact form of at least one protein or probe is not confirmed.
